Some entries share one result that the patent states for a list of compounds.
target: T1, human CB2 receptor (Homo sapiens, UniProt P34972); test: PathHunter β-arrestin assay, CB2 assay; format: cell-based; details: range over compounds, limits printed with their own units
T1 construct: CB2 was cloned into the pCMV-PK vector; 93-0164 (CHO-K1 EA-Arrestin parental cell line)

Protein sequences, listed by entry. Tags and fused reporters are not part of them.
UniProt P34972, whole entry: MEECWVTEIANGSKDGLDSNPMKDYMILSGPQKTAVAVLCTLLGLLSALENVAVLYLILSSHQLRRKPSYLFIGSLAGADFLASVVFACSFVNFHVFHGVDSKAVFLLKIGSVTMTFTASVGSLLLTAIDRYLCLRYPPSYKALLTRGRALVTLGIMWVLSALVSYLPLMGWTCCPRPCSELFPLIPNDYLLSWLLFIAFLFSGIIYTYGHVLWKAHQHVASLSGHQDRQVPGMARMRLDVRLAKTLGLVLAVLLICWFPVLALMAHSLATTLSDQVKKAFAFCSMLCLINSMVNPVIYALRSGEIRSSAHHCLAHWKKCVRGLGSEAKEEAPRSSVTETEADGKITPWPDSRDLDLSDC

Row | Compound | hCB2 EC50 value, range
1 | CC(C)(C)[C@@H](CF)NC(=O)c1nn(-c2c[n+]([O-])ccn2)c2c1C[C@H]1C[C@@H]21 [Compound 918, (1aR,5aR)-2-(4-Oxy-pyrazin-2-yl)-1a,2,5,5a-tetrahydro-1H-2,3-diaza-cyclopropa[a]pentalene-4-carboxylic Acid ((S)-1-Fluoromethyl-2,2-dimethyl-propyl)-amide] | 0.72 nM to about 3 μM
2 | CC(C)(NC(=O)c1nn(-c2c[n+]([O-])ccn2)c2c1C[C@@H]1C[C@H]21)C(F)(F)F [Compound 919, (1aS,5aS)-2-(4-Oxy-pyrazin-2-yl)-1a,2,5,5a-tetrahydro-1H-2,3-diaza-cyclopropa[a]pentalene-4-carboxylic Acid (2,2,2-Trifluoro-1,1-dimethyl-ethyl)-amide] | 0.72 nM to about 3 μM
3 | O=C(N[C@H]1c2ccccc2C[C@@H]1O)c1nn(-c2c[n+]([O-])ccn2)c2c1C[C@@H]1C[C@H]21 [Compound 920, (1aS,5aS)-2-(4-Oxy-pyrazin-2-yl)-1a,2,5,5a-tetrahydro-1H-2,3-diaza-cyclopropa[a]pentalene-4-carboxylic Acid ((1S,2S)-2-Hydroxy-indan-1-yl)-amide] | 0.72 nM to about 3 μM
4 | O=C(N[C@H]1c2ccccc2C[C@H]1O)c1nn(-c2c[n+]([O-])ccn2)c2c1C[C@@H]1C[C@H]21 [Compound 921, (1aS,5aS)-2-(4-Oxy-pyrazin-2-yl)-1a,2,5,5a-tetrahydro-1H-2,3-diaza-cyclopropa[a]pentalene-4-carboxylic Acid ((1S,2R)-2-Hydroxy-indan-1-yl)-amide] | 0.72 nM to about 3 μM
5 | O=C(NC1(CF)CCC1)c1nn(-c2c[n+]([O-])ccn2)c2c1C[C@@H]1C[C@H]21 [Compound 924, (1aS,5aS)-2-(4-Oxy-pyrazin-2-yl)-1a,2,5,5a-tetrahydro-1H-2,3-diaza-cyclopropa[a]pentalene-4-carboxylic Acid (1-Fluoromethyl-cyclobutyl)-amide] | 0.72 nM to about 3 μM
6 | O=C(NC1(C(F)(F)F)CCC1)c1nn(-c2cnccn2)c2c1C[C@@H]1C[C@H]21 [Compound 926, (1aS,5aS)-2-Pyrazin-2-yl-1a,2,5,5a-tetrahydro-1H-2,3-diaza-cyclopropa[a]pentalene-4-carboxylic Acid (1-Trifluoromethyl-cyclobutyl)-amide] | 0.72 nM to about 3 μM
7 | O=C(NC1(C(F)(F)F)CC1)c1nn(-c2cnccn2)c2c1C[C@@H]1C[C@H]21 [Compound 930, (1aS,5aS)-2-Pyrazin-2-yl-1a,2,5,5a-tetrahydro-1H-2,3-diaza-cyclopropa[a]pentalene-4-carboxylic Acid (1-Trifluoromethyl-cyclopropyl)-amide] | 0.72 nM to about 3 μM
8 | CC(C)(CO)NC(=O)c1nn(-c2cc(F)ccn2)c2c1C[C@H]1C[C@@H]21 [Compound 931, (1aR,5aR)-2-(4-Fluoro-pyridin-2-yl)-1a,2,5,5a-tetrahydro-1H-2,3-diaza-cyclopropa[a]pentalene-4-carboxylic Acid (2-Hydroxy-1,1-dimethyl-ethyl)-amide] | 0.72 nM to about 3 μM

— patent publication US9492447B2, “Cannabinoid receptor modulators” (Arena Pharmaceuticals, Inc., priority 2011, dated 2016)
